For assay [1], the target named is human acyl protein thioesterase 1 (APT1), wildtype (human), O75608. Nature of the assay: SEC-MALS. The conditions noted are these: remark: other sources report otherwise.
For assay [2], the target named is human acyl protein thioesterase 2 (APT2, LYPLA2), wildtype (human), O95372. Nature of the assay: SEC-MALS. The conditions noted are these: remark: other sources report otherwise. On the technique in general: SEC sorts molecules by how far they enter the pores of the column.

No constants are given. Whether binding was seen depends on the method and setting.

B1: human acyl protein thioesterase 1 (APT1), wildtype, O75608 1-230 (enzyme)
chain: MCGNNMSTPLPAIVPAARKATAAVIFLHGLGDTGHGWAEAFAGIRSSHIKYICPHAPVRPVTLNMNVAMPSWFDIIGLSPDSQEDESGIKQAAENIKALIDQEVKNGIPSNRIILGGFSQGGALSLYTALTTQQKLAGVTALSCWLPLRASFPQGPIGGANRDISILQCHGDCDPLVPLMFGSLTVEKLKTLVNPANVTFKTYEGMMHSSCQQEMMDVKQFIDKLLPPID
In the case of B1, the binding result in assay [1] is listed as “no binding (tested: 40 μM)”.

B2: human acyl protein thioesterase 2 (APT2, LYPLA2), wildtype, O95372 1-231 (enzyme)
chain: MCGNTMSVPLLTDAATVSGAERETAAVIFLHGLGDTGHSWADALSTIRLPHVKYICPHAPRIPVTLNMKMVMPSWFDLMGLSPDAPEDEAGIKKAAENIKALIEHEMKNGIPANRIVLGGFSQGGALSLYTALTCPHPLAGIVALSCWLPLHRAFPQAANGSAKDLAILQCHGELDPMVPVRFGALTAEKLRSVVTPARVQFKTYPGVMHSSCPQEMAAVKEFLEKLLPPV
On to B2, for which the binding entry in assay [2] was “no binding (tested: 40 μM)”.

Source of the values: doi:10.1101/2020.06.18.157545.
